A short description of the data set: general procedure: Fmoc solid-phase peptide synthesis; 2-chlorotrityl chloride resin. Conditions: for step yield: coupling step.

For the substance hAdn-WM65, the step yield is listed as 34%.

Substance hAdn-WM77-b returned an isolated yield (whole synthesis, based on the resin loading) of 8.9%.

Consider hAdn-WM77, for which, where the note is “over 2 steps (deFmoc and Ser/Thr ligation)”, the step yield is on record as 30.8%.

The values above are taken from patent US20240209029A1 (The University of Hong Kong, priority 2021, published 2024).
